Laboratory results published in patent publication US7338948B2, “Use of quetiapine” (AstraZeneca AB, priority 2000, dated 2008).
At least one structure is not confirmed: it was looked up by name or label, or the drawing left a doubt.

Tested on: Conduct Disorder, Childhood Onset, Moderate Severity and Attention Deficit Hyperactivity Disorder (ADHD), Combined Type
Assay: Case report: patient with Conduct Disorder and ADHD treated with successive drugs
Details: valproate 750 mg for 8 weeks, added to olanzapine
Text: A person was diagnosed with ‘Conduct Disorder, Childhood Onset, Moderate Severity’ and ‘Attention Deficit Hyperactivity Disorder (ADHD), Combined Type’ (DSM-IV diagnostic criteria).

CCCC(CCC)C(=O)O [Valproate]
clinical response (behaviour): no significant improvement in behaviour
